Assay results published in the supplement of paper PMC12823440, “Inhibitors supercharge kinase turnover through native proteolytic circuits” (Nature, 2025).
Some of the results follow. The calls rarely recur for the same compound in another form.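 Kinases, fused to nanoluciferase, were expressed in K562 cells; luminescence was measured every 4 h from 2 to 18 h as percent of control (DMSO = 100%, positive control = 0%). A time point is decreased if signal falls significantly (2 sigma). Hits were called by the authors by a rule that is not shown; the count of time points alone does not decide it.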

The chains behind the UniProt entries cited, without tags or fusion partners. Where a name states a change or a piece, a line headed by the entry shows the natural chain unless it says otherwise.
UniProt P00519, whole entry: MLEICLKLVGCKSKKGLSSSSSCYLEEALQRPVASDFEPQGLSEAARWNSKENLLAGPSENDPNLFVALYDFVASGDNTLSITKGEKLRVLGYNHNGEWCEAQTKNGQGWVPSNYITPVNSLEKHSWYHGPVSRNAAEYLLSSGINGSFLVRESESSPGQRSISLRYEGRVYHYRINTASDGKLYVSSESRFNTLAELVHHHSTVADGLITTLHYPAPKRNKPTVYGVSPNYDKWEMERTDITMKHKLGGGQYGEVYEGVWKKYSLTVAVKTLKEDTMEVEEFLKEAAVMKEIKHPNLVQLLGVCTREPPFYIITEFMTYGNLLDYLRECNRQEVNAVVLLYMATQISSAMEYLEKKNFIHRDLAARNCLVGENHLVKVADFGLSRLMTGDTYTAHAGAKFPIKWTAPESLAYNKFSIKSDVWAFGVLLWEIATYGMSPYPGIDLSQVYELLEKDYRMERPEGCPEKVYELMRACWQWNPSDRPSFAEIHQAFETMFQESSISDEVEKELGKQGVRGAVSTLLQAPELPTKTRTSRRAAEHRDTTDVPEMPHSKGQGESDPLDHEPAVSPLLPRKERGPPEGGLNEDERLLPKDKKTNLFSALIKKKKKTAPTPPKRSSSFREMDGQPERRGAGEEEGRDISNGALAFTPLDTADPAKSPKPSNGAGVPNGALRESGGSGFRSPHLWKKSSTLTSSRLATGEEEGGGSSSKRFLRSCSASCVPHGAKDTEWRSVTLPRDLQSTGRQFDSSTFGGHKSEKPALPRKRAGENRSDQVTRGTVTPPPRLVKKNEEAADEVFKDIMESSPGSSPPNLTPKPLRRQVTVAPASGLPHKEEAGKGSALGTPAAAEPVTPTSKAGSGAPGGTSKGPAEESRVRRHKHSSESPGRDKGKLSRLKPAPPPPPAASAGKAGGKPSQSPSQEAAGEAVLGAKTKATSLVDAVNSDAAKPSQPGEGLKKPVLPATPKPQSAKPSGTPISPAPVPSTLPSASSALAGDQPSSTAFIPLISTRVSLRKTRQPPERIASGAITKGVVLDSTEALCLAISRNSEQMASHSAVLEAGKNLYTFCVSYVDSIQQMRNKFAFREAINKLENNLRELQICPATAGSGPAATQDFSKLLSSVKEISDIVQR
UniProt Q9UM73: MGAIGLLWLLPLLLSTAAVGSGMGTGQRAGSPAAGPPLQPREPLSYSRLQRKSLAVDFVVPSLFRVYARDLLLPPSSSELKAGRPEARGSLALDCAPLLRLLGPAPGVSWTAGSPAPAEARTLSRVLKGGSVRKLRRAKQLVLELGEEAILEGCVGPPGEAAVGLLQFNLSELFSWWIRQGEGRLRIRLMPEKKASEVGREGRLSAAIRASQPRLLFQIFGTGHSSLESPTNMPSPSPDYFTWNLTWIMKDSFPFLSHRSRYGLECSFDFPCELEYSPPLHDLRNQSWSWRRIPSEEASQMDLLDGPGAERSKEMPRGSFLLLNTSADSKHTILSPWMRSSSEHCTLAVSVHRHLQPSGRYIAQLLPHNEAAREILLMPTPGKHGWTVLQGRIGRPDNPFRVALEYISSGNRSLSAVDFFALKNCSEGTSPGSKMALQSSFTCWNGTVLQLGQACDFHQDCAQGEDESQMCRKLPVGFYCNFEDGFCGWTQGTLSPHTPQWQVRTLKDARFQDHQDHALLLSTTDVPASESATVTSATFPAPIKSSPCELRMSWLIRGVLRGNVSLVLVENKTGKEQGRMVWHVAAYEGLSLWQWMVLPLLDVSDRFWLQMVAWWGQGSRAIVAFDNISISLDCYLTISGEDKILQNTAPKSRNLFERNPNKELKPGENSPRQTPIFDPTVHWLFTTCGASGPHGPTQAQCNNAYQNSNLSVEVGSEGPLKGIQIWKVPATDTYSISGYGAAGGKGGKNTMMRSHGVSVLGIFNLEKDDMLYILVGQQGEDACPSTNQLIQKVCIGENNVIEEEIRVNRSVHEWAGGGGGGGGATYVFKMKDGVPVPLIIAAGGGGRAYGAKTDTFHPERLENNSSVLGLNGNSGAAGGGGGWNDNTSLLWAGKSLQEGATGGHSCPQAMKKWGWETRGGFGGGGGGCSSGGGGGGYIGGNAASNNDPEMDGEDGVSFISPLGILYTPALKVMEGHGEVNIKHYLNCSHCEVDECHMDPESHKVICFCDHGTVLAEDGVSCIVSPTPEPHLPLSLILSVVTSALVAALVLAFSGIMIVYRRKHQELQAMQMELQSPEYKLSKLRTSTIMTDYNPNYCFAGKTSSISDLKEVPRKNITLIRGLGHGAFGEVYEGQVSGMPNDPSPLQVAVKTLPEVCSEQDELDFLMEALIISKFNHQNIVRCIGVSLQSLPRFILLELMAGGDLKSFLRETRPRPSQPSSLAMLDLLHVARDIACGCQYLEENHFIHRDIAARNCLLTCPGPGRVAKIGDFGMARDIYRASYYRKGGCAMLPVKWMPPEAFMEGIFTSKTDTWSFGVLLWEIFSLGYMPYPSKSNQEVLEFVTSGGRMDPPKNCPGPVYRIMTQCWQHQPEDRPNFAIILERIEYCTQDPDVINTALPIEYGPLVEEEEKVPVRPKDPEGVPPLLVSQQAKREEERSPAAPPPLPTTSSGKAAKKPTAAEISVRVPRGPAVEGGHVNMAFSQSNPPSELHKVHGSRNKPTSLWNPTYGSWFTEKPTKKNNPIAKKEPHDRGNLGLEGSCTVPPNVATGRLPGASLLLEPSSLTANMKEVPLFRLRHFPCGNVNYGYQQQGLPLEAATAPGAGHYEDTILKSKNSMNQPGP
UniProt P10398: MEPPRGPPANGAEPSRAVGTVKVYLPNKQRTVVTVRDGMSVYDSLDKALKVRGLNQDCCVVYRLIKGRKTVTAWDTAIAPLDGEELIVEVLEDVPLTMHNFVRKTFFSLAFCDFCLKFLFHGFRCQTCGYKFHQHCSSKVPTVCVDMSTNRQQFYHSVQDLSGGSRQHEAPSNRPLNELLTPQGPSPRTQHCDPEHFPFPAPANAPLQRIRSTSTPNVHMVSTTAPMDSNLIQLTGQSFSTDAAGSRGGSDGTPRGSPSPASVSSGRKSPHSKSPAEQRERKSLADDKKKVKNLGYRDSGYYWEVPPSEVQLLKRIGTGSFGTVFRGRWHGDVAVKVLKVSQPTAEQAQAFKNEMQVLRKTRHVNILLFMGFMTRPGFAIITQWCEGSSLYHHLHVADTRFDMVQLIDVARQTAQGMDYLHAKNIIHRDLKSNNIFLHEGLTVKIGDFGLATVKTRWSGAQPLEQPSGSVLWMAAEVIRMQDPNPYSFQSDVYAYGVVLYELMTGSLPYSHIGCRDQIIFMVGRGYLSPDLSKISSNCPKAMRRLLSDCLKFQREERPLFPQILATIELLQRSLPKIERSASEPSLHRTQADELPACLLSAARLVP
UniProt O14965: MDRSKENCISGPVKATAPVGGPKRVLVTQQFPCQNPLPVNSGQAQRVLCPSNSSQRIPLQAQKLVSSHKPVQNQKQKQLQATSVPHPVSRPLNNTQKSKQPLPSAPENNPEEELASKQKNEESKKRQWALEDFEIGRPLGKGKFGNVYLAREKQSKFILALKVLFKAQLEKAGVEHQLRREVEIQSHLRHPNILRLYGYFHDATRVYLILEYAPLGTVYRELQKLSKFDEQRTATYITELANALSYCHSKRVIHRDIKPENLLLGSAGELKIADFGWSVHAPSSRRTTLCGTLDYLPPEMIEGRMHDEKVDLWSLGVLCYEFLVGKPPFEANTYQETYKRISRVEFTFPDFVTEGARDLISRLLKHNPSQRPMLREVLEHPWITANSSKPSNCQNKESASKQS
UniProt Q96GD4, whole entry: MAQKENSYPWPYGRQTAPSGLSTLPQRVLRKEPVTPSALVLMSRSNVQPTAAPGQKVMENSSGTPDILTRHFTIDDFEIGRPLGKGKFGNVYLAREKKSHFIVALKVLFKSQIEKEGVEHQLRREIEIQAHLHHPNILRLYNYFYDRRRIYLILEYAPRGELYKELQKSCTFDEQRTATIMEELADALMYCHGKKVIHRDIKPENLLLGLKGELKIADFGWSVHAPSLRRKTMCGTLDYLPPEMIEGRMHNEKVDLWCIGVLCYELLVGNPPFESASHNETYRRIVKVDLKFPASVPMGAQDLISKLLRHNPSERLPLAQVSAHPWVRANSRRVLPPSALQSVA
UniProt P51451: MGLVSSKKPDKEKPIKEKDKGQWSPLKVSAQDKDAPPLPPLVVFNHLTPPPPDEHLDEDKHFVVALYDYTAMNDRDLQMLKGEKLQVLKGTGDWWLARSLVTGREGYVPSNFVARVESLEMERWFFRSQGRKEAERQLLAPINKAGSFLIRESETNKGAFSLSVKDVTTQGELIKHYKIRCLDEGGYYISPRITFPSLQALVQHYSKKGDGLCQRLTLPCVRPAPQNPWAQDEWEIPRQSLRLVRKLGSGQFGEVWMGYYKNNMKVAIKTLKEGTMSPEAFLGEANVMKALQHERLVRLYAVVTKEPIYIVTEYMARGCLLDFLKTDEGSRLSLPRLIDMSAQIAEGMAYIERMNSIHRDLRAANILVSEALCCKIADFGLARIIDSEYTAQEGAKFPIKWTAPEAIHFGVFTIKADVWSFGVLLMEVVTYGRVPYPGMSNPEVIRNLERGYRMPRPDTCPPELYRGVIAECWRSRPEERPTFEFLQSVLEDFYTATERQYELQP
UniProt P51813: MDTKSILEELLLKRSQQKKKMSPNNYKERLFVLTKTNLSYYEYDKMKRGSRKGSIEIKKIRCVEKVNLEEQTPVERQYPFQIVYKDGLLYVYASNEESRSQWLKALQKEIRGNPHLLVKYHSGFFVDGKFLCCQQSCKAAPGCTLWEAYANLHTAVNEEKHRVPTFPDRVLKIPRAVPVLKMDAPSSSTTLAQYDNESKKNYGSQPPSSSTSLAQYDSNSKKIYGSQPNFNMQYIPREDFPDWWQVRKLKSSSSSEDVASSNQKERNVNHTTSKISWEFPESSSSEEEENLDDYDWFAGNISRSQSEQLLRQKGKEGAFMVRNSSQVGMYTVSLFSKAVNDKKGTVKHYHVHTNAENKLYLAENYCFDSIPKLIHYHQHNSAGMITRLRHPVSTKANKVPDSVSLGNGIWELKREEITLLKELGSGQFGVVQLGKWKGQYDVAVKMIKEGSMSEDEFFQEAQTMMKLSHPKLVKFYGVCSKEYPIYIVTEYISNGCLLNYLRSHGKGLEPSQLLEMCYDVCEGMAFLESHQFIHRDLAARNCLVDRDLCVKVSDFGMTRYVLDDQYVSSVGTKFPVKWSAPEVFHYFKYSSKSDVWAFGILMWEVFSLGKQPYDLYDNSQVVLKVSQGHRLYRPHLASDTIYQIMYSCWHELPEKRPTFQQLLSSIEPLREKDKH
UniProt P15056, whole entry, looked up: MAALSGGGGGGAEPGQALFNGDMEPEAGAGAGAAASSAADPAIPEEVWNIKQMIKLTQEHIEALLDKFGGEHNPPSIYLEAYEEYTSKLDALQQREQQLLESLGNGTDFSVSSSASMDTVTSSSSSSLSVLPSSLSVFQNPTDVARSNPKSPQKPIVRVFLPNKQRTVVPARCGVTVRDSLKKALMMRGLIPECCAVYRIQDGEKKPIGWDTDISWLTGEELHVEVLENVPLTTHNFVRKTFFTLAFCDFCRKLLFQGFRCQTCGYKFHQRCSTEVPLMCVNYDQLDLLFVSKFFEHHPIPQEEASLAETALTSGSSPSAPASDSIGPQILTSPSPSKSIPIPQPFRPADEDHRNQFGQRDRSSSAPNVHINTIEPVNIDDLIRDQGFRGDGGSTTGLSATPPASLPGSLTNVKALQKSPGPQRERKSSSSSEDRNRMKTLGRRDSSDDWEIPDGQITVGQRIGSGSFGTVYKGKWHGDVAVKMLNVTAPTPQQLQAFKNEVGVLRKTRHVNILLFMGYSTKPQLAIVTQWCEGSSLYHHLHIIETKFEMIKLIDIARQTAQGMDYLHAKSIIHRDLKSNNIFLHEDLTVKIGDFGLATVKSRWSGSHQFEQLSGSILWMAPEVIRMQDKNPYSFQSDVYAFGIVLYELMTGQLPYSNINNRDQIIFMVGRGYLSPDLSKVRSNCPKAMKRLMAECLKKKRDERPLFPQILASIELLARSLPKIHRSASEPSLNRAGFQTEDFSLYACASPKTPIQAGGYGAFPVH
UniProt P31749: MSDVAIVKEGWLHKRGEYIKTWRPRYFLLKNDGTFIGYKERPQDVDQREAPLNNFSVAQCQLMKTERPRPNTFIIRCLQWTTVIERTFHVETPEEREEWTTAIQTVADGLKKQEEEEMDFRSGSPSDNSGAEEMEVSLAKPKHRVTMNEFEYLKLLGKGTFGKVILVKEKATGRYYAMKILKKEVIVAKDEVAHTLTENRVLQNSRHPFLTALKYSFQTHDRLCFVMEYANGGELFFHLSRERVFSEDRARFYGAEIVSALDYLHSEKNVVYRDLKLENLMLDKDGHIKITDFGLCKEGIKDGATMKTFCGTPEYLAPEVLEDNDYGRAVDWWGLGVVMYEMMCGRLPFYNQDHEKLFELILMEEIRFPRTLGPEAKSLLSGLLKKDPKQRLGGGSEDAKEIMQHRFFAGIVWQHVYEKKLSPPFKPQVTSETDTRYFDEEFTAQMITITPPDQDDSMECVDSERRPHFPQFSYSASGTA

Tests used:
Assay in all cases: kinase-Nluc reporter destabilization hit call (1 = scored as downregulated) (binary); higher = compound decreases kinase abundance
Details in all cases: K562, 2-18 h
ABL1 = ABL1 (UniProt P00519)
ALK = ALK (UniProt Q9UM73)
ARAF = ARAF (UniProt P10398)
AURKA = AURKA (UniProt O14965)
AURKB = AURKB (UniProt Q96GD4)
AURKC = AURKC (UniProt Q9UQB9)
BLK = BLK (UniProt P51451)
BMX = BMX (UniProt P51813)
BRAF = BRAF (UniProt P15056)
AKT1 = AKT1 (UniProt P31749)

Measured: kinase-Nluc reporter destabilization hit call

NC1(C(=O)N[C@@H](CCO)c2ccc(Cl)cc2)CCN(c2nc[nH]c3nccc2-3)CC1 [Capivasertib]
inactive: ABL1; 10 µM 0 | ALK; 10 µM 0 | ARAF; 10 µM 0 | AURKA; 10 µM 0 | AURKB; 10 µM 0 | AURKC; 10 µM 0 | BLK; 10 µM 0 | BMX; 10 µM 0 | BRAF; 10 µM 0

CCOc1nc(NC(=O)Cc2cc(OC)ccc2OC)cc(N)c1C#N [JNK Inhibitor VIII]
inactive: ABL1; 10 µM 0 | AKT1; 10 µM 0 | ALK; 10 µM 0 | ARAF; 10 µM 0 | AURKA; 10 µM 0 | AURKB; 10 µM 0 | AURKC; 10 µM 0 | BMX; 10 µM 0 | BRAF; 10 µM 0

CCn1c(=O)c(-c2cc(NC(=O)Nc3ccccc3)c(F)cc2Br)cc2cnc(NC)cc21 [Ripretinib]
inactive: ABL1; 10 µM 0 | AKT1; 10 µM 0 | ARAF; 10 µM 0 | AURKA; 10 µM 0 | AURKB; 10 µM 0 | AURKC; 10 µM 0 | BLK; 10 µM 0 | BMX; 10 µM 0 | BRAF; 10 µM 0

CC#CC(=O)N1CCC[C@H]1c1nc(-c2ccc(C(=O)Nc3ccccn3)cc2)c2c(N)nccn12 [Acalabrutinib]
inactive: ABL1; 10 µM 0 | AKT1; 10 µM 0 | ALK; 10 µM 0 | ARAF; 10 µM 0 | AURKA; 10 µM 0 | AURKB; 10 µM 0 | AURKC; 10 µM 0 | BLK; 10 µM 0 | BRAF; 10 µM 0

O=C1Cc2c([nH]c3ccc(Br)cc23)-c2ccccc2N1 [Kenpaullone]
inactive: ABL1; 10 µM 0 | AKT1; 10 µM 0 | ALK; 10 µM 0 | ARAF; 10 µM 0 | AURKA; 10 µM 0 | AURKB; 10 µM 0 | AURKC; 10 µM 0 | BMX; 10 µM 0 | BRAF; 10 µM 0

CN1CCN(c2nc(C3=C(c4c[nH]c5ccccc45)C(=O)NC3=O)c3ccccc3n2)CC1 [Sotrastaurin]
inactive: ABL1; 2.5 µM 0 | AKT1; 2.5 µM 0 | ALK; 2.5 µM 0 | ARAF; 2.5 µM 0 | AURKA; 2.5 µM 0 | AURKB; 2.5 µM 0 | AURKC; 2.5 µM 0 | BMX; 2.5 µM 0 | BRAF; 2.5 µM 0

O=C(c1ccc(/C=C/c2n[nH]c3ccccc23)cc1)N1CCNCC1
inactive: ABL1; 2.5 µM 0 | AKT1; 2.5 µM 0 | ALK; 2.5 µM 0 | ARAF; 2.5 µM 0 | AURKA; 2.5 µM 0 | AURKB; 2.5 µM 0 | AURKC; 2.5 µM 0 | BLK; 2.5 µM 0 | BRAF; 2.5 µM 0

COc1ccc(-c2cc(C(=O)NN=C(C)c3ccc(OC)c(OC)c3)[nH]n2)cc1
inactive: ABL1; 10 µM 0 | AKT1; 10 µM 0 | ALK; 10 µM 0 | AURKA; 10 µM 0 | AURKB; 10 µM 0 | AURKC; 10 µM 0 | BLK; 10 µM 0 | BMX; 10 µM 0 | BRAF; 10 µM 0

Cc1cc2ncnn2cc1Nc1ncc2c(n1)n(C1CCOCC1)c(=O)n2C
inactive: ARAF; 10 µM 0 | AURKC; 10 µM 0 | BMX; 10 µM 0 | BRAF; 10 µM 0

CN1CCN(c2ccc3nc(-c4c(N)c5c(F)cccc5[nH]c4=O)[nH]c3c2)CC1 [Dovitinib]
inactive: AKT1; 2.5 µM 0 | ALK; 2.5 µM 0 | ARAF; 2.5 µM 0 | AURKA; 2.5 µM 0 | AURKB; 2.5 µM 0 | AURKC; 2.5 µM 0 | BLK; 2.5 µM 0 | BMX; 2.5 µM 0 | BRAF; 2.5 µM 0

CNC(=O)c1cc(Oc2ccc(NC(=O)Nc3ccc(Cl)c(C(F)(F)F)c3)cc2)ccn1 [Sorafenib (Tosylate)]
inactive: AKT1; 10 µM 0 | ALK; 10 µM 0 | ARAF; 10 µM 0 | AURKA; 10 µM 0 | AURKC; 10 µM 0 | BLK; 10 µM 0 | BMX; 10 µM 0

CC1(C)CNc2cc(NC(=O)c3cccnc3NCc3ccncc3)ccc21 [Motesanib]
inactive: AKT1; 2.5 µM 0 | ALK; 2.5 µM 0 | ARAF; 2.5 µM 0 | AURKA; 2.5 µM 0 | AURKB; 2.5 µM 0 | AURKC; 2.5 µM 0 | BLK; 2.5 µM 0 | BMX; 2.5 µM 0

Cc1cc2c(F)c(Oc3ncnn4cc(OC[C@@H](C)O)c(C)c34)ccc2[nH]1 [Brivanib]
inactive: AKT1; 10 µM 0 | ALK; 10 µM 0 | ARAF; 10 µM 0 | AURKA; 10 µM 0 | AURKB; 10 µM 0 | AURKC; 10 µM 0 | BLK; 10 µM 0 | BMX; 10 µM 0 | BRAF; 10 µM 0

Cc1ccc2c(=O)c3cccc(CC(=O)O)c3oc2c1C [Vadimezan]
inactive: AKT1; 10 µM 0 | ALK; 10 µM 0 | ARAF; 10 µM 0 | AURKA; 10 µM 0 | AURKB; 10 µM 0 | AURKC; 10 µM 0 | BLK; 10 µM 0 | BMX; 10 µM 0 | BRAF; 10 µM 0

Cc1ccc(Nc2nccc(N(C)c3ccc4c(C)n(C)nc4c3)n2)cc1S(N)(=O)=O [Pazopanib]
inactive: AKT1; 10 µM 0 | ALK; 10 µM 0 | ARAF; 10 µM 0 | AURKA; 10 µM 0 | AURKB; 10 µM 0 | AURKC; 10 µM 0 | BLK; 10 µM 0 | BMX; 10 µM 0

CC(=O)c1c(C)c2cnc(Nc3ccc(N4CCN(C(=O)CCCCCC(=O)N[C@H](C(=O)N5C[C@H](O)C[C@H]5C(=O)NCc5ccc(-c6scnc6C)cc5)C(C)(C)C)CC4)cn3)nc2n(C2CCCC2)c1=O
inactive: ARAF; 2.5 µM 0 | AURKC; 2.5 µM 0 | BMX; 2.5 µM 0 | BRAF; 2.5 µM 0

CN1CCN(c2ccc3nc(-c4c(N)c5c(F)cccc5[nH]c4=O)[nH]c3c2)CC1 [Dovitinib (lactate)]
inactive: AKT1; 2.5 µM 0 | ALK; 2.5 µM 0 | ARAF; 2.5 µM 0 | AURKA; 2.5 µM 0 | AURKB; 2.5 µM 0 | AURKC; 2.5 µM 0 | BLK; 2.5 µM 0 | BMX; 2.5 µM 0 | BRAF; 2.5 µM 0

Cc1cc(Nc2cc(N3CCN(C)CC3)nc(/C=C/c3ccccc3)n2)n[nH]1
inactive: AKT1; 2.5 µM 0 | ALK; 2.5 µM 0 | ARAF; 2.5 µM 0 | AURKA; 2.5 µM 0 | AURKB; 2.5 µM 0 | AURKC; 2.5 µM 0 | BLK; 2.5 µM 0 | BMX; 2.5 µM 0 | BRAF; 2.5 µM 0
